Results from one PubChem assay

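Malaria parasite (P. falciparum) lines kept in red blood cells; parasite DNA is measured by SYBR Green fluorescence after lysis, 72 h after compound addition. Each compound was titrated across a series from about 0.000037 to 29 µM. The number is the fitted AC50, the concentration giving a half-maximal change in signal; a lower value means higher potency, whether the curve shows a decrease or an increase. Calls follow the curve class and fit quality: every row here is inconclusive, covering signal-raising curves and weak, poorly fitted, partial or highest-dose-only inhibition curves.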

Values are in µM. Every entry below has the call inconclusive. These entries are mostly ones the record files as inconclusive; other results of the assay are not listed here. Potencies fitted to partial, single-point or poorly fitting curves are rough.

- Cc1c(O)cccc1C(=O)N[C@@H](CSc1ccccc1)[C@H](O)CN1C[C@H]2CCCC[C@H]2C[C@H]1C(=O)NC(C)(C)C [CP238] : fitted potency 10 µM (inhibitor, single point)
- Cc1c(O)cccc1C(=O)N[C@@H](CSc1ccccc1)[C@H](O)CN1C[C@H]2CCCC[C@H]2C[C@H]1C(=O)NC(C)(C)C [GB4] : fitted potency 15.1 µM (inhibitor, partial curve, poor fit)
- Cc1c(O)cccc1C(=O)N[C@@H](CSc1ccccc1)[C@H](O)CN1C[C@H]2CCCC[C@H]2C[C@H]1C(=O)NC(C)(C)C [CP268] : fitted potency 19.01 µM (inhibitor, partial curve, poor fit)
- Cc1c(O)cccc1C(=O)N[C@@H](CSc1ccccc1)[C@H](O)CN1C[C@H]2CCCC[C@H]2C[C@H]1C(=O)NC(C)(C)C [CP260] : fitted potency 11.22 µM (inhibitor, single point)
- Cc1c(O)cccc1C(=O)N[C@@H](CSc1ccccc1)[C@H](O)CN1C[C@H]2CCCC[C@H]2C[C@H]1C(=O)NC(C)(C)C [CP265] : fitted potency 17.78 µM (inhibitor, single point)
- Cc1c(O)cccc1C(=O)N[C@@H](CSc1ccccc1)[C@H](O)CN1C[C@H]2CCCC[C@H]2C[C@H]1C(=O)NC(C)(C)C [PC49] : fitted potency 10 µM (inhibitor, single point)
- Cc1c(O)cccc1C(=O)N[C@@H](CSc1ccccc1)[C@H](O)CN1C[C@H]2CCCC[C@H]2C[C@H]1C(=O)NC(C)(C)C [CP269] : fitted potency 19.01 µM (inhibitor, single point)
- Cc1c(O)cccc1C(=O)N[C@@H](CSc1ccccc1)[C@H](O)CN1C[C@H]2CCCC[C@H]2C[C@H]1C(=O)NC(C)(C)C [CP247] : fitted potency 17.78 µM (inhibitor, single point)
- Cc1c(O)cccc1C(=O)N[C@@H](CSc1ccccc1)[C@H](O)CN1C[C@H]2CCCC[C@H]2C[C@H]1C(=O)NC(C)(C)C [CP335] : fitted potency 19.01 µM (inhibitor, single point)
- Cc1c(O)cccc1C(=O)N[C@@H](CSc1ccccc1)[C@H](O)CN1C[C@H]2CCCC[C@H]2C[C@H]1C(=O)NC(C)(C)C [AA1029] : fitted potency 10 µM (inhibitor, single point)
- Cc1c(O)cccc1C(=O)N[C@@H](CSc1ccccc1)[C@H](O)CN1C[C@H]2CCCC[C@H]2C[C@H]1C(=O)NC(C)(C)C [CP256] : fitted potency 17.78 µM (inhibitor, single point)
- Cc1c(O)cccc1C(=O)N[C@@H](CSc1ccccc1)[C@H](O)CN1C[C@H]2CCCC[C@H]2C[C@H]1C(=O)NC(C)(C)C [CP217] : fitted potency 12.59 µM (inhibitor, single point)
- Cc1c(O)cccc1C(=O)N[C@@H](CSc1ccccc1)[C@H](O)CN1C[C@H]2CCCC[C@H]2C[C@H]1C(=O)NC(C)(C)C [PC26] : fitted potency 16.94 µM (inhibitor, single point)
- Cc1c(O)cccc1C(=O)N[C@@H](CSc1ccccc1)[C@H](O)CN1C[C@H]2CCCC[C@H]2C[C@H]1C(=O)NC(C)(C)C [CP194] : fitted potency 13.46 µM (inhibitor, single point)
- Cc1c(O)cccc1C(=O)N[C@@H](CSc1ccccc1)[C@H](O)CN1C[C@H]2CCCC[C@H]2C[C@H]1C(=O)NC(C)(C)C [CP252] : fitted potency 15.85 µM (inhibitor, single point)
- Cc1c(O)cccc1C(=O)N[C@@H](CSc1ccccc1)[C@H](O)CN1C[C@H]2CCCC[C@H]2C[C@H]1C(=O)NC(C)(C)C [DFO2036] : fitted potency 7.08 µM (inhibitor, partial curve)
- O=C1O[C@H](CN2CCOCC2)CN1/N=C\c1ccc([N+](=O)[O-])o1 [AA1029] : fitted potency 6.31 µM (inhibitor, single point)
- O=C1O[C@H](CN2CCOCC2)CN1/N=C\c1ccc([N+](=O)[O-])o1 [DFO2036] : fitted potency 2.818 µM (inhibitor, single point)
- O=C1O[C@H](CN2CCOCC2)CN1/N=C\c1ccc([N+](=O)[O-])o1 [HB3] : fitted potency 3.162 µM (inhibitor, partial curve, poor fit)
- O=C1O[C@H](CN2CCOCC2)CN1/N=C\c1ccc([N+](=O)[O-])o1 [ICS] : fitted potency 3.981 µM (inhibitor, single point)
- O=C1O[C@H](CN2CCOCC2)CN1/N=C\c1ccc([N+](=O)[O-])o1 [TAB109] : fitted potency 2.239 µM (inhibitor, partial curve)
- O=C1O[C@H](CN2CCOCC2)CN1/N=C\c1ccc([N+](=O)[O-])o1 [ECU] : fitted potency 7.943 µM (inhibitor, single point)
- O=C1O[C@H](CN2CCOCC2)CN1/N=C\c1ccc([N+](=O)[O-])o1 [Dd2] : fitted potency 3.162 µM (inhibitor, partial curve)
- O=C1O[C@H](CN2CCOCC2)CN1/N=C\c1ccc([N+](=O)[O-])o1 [W2] : fitted potency 8.087 µM (inhibitor, single point)
- O=C1O[C@H](CN2CCOCC2)CN1/N=C\c1ccc([N+](=O)[O-])o1 [CP237] : fitted potency 7.943 µM (inhibitor, single point)
- O=C1O[C@H](CN2CCOCC2)CN1/N=C\c1ccc([N+](=O)[O-])o1 [AS120] : fitted potency 10 µM (inhibitor, single point)
- O=C1O[C@H](CN2CCOCC2)CN1/N=C\c1ccc([N+](=O)[O-])o1 [P94_40] : fitted potency 10 µM (inhibitor, single point)
- O=C1O[C@H](CN2CCOCC2)CN1/N=C\c1ccc([N+](=O)[O-])o1 [TAB165] : fitted potency 4.467 µM (inhibitor, single point)

For reference, 2 entries once more:

compound	setting	fitted potency (µM)	remark
Cc1c(O)cccc1C(=O)N[C@@H](CSc1ccccc1)[C@H](O)CN1C[C@H]2CCCC[C@H]2C[C@H]1C(=O)NC(C)(C)C	CP265	17.78	inhibitor, single point
Cc1c(O)cccc1C(=O)N[C@@H](CSc1ccccc1)[C@H](O)CN1C[C@H]2CCCC[C@H]2C[C@H]1C(=O)NC(C)(C)C	PC49	10	inhibitor, single point

The results are deposited in PubChem (AID504749; NCATS, 2011).